Binding data for one substance are collected here from paper PMC11079029, “Intramolecular autoinhibition regulates the selectivity of PRPF40A tandem WW domains for proline-rich motifs” (Nature Communications, 2024).

Sequences of proteins named here, by UniProt entry; tags and fusion partners are left off. Residues count along the entry.
UniProt O75400, residues 141-236: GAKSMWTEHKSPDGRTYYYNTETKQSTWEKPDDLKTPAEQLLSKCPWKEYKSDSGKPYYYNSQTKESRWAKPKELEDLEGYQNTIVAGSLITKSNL

Assay [1] addresses T1, GB1-SF1(342-357) 16-mer peptide.
T1 sequence: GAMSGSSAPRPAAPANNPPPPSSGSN
The experiment in a line: ITC; MicroCal PEAQ-ITC, 25 °C, 20 mM sodium phosphate pH 6.5, 100 mM NaCl; PRPF40A constructs and GB1-tagged SF1 16-mer peptides; who was in the syringe is not stated for these panels (Fig. 2B, Fig. 5C); one-site model; both purified. (In general: Isothermal titration calorimetry measures the heat released or taken up as one component is titrated into another.)

Assay [2] deals with T2, GB1-SF1(387-402) 16-mer peptide.
T2 sequence: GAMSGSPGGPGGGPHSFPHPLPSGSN
Described as above.

Results are given in words; binding and its absence hold for the method and conditions named.

Turning to “PRPF40A WW12 (tandem WW domains, residues 141-236) (from UniProt O75400 141-236) (domain or fragment)”, the binding result was “no binding (tested: cell around 20–40 uM, syringe 200–500 uM)” in assay [1] and “no binding (tested: cell around 20–40 uM, syringe 200–500 uM)” in assay [2].
